PubChem BioAssay AID493014 (National Center for Advancing Translational Sciences (NCATS), 2011)
Some of the results follow. The main result of the screen is listed elsewhere. These columns were measured beside it and carry no call. Most of these compounds were active or inconclusive in the main read-out, so they are no random draw. Words in brackets tell the shape of the fitted curve; partial curves, single points and poor fits give uncertain potencies.

Test: qHTS Assay to Find Inhibitors of Chronic Active B-Cell Receptor Signaling
Conditions: ABC-DLBCL IkBa-CBG/CBR reporter, luminescence ratio (green luciferase fused to IkBa over red control in TMD8 lymphoma cells), 4 h
Summary of the method: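 Cell line TMD8 (human ABC DLBCL), stably expressing tet-inducible CBG68-IkBa fusion and CBR; IMDM/0.5% FBS; cpd up to 46 uM; dox induction, 4 h, 37C/5% CO2; dual luminescence; green/red ratio; MG132 control.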

[1] = measured here: CBR red luminescence, cell number

## O=C(CSc1nnc(-c2ccc(O)cc2)o1)N1CCOCC1
[1]
  AC50: 25.1 µM [falling, partial curve, poor fit]

## Cn1c2ccccc2c2c(C(=O)N3CCC4(CC3)OCCO4)cn(C3CCCCC3)c(=O)c21
[1]
  AC50: 3.26 µM [rising, partial curve, poor fit]

## CCCCCc1nc2ccccc2c(=O)n1-c1ccc(Cl)cc1[N+](=O)[O-]
[1]
  AC50: 6.31 µM [falling, single point]

## O=c1c2ccccc2nc(/C=C/c2ccccc2F)n1-c1ccccc1O
[1]
  AC50: 11.2 µM [falling, partial curve, poor fit]

## COc1ccccc1Oc1coc2cc(OC(=O)N3CCOCC3)ccc2c1=O
[1]
  AC50: 4.61 µM [rising, single point]

## CCN1CCN(Cc2ccccc2C)CC1
[1]
  AC50: 6.51 µM [rising, single point]

## CC(C)CCOP(=O)(c1ccc(N(C)C)cc1)C(O)c1ccccc1 (centres undefined)
[1]
  AC50: 10 µM [falling, single point]

## CN1CCC(N(C)c2nc(-c3ccccc3)nc3ccccc23)CC1
[1]
  AC50: 29.1 µM [falling, single point]

## COc1ccc2c(CN3CC=C(c4ccccc4)CC3)cc(=O)oc2c1
[1]
  AC50: 7.94 µM [falling, partial curve, poor fit]

## COc1cccc(N=Nc2c(O)[nH]c(=S)[nH]c2=O)c1
[1]
  AC50: 8.91 µM [falling, partial curve, poor fit]

## Cc1ccc(-n2c(C)cc(/C=C3/C(=O)NC(=O)N(Cc4ccco4)C3=O)c2C)cc1
[1]
  AC50: 29.1 µM [falling, single point]

## COC(=O)C1=C(c2cccc(OCc3ccccc3)c2)C[C@@H]2CC[C@H]1N2C(=O)NCc1cc(C)oc1C(F)(F)F
[1]
  AC50: 32.6 µM [falling, partial curve, poor fit]

## COC(=O)C1=C(c2ccc(Cl)c(C(F)(F)F)c2)C[C@@H]2CC[C@H]1N2C(=O)NCCOc1ccccc1
[1]
  AC50: 29.1 µM [falling, single point]

## CC(C)N1C(=O)NC(=O)C2(Cc3cc([N+](=O)[O-])ccc3N(C)C2c2ccccc2)C1=O (centres undefined)
[1]
  AC50: 29.1 µM [falling, single point]

## Cc1oc(-c2ccccc2Cl)nc1CN1C(=O)CN=C(c2ccccc2)c2ccccc21
[1]
  AC50: 25.9 µM [falling, partial curve, poor fit]

## COCCOC(=O)c1c(N)n(Cc2ccc(OC)cc2)c2nc3ccccc3nc12
[1]
  AC50: 0.731 µM [falling, full curve, poor fit]

## Cc1cccc(N2C(=O)NC(=O)/C(=C\c3cccn3-c3ccc(Cl)cc3)C2=O)c1
[1]
  AC50: 31.6 µM [rising, single point]

## C=C1C(=O)O[C@H]2C[C@@H](C)[C@@H]3C=CC(=O)[C@@]3(C)C[C@H]12
[1]
  AC50: 1.58 µM [falling, full curve]
Measured here: IkBa-CBG green luminescence
  AC50: 20 µM [rising, partial curve, poor fit]

## O=C(NCc1cccnc1)Nc1ccc([N+](=O)[O-])cc1
[1]
  AC50: 20 µM [rising, single point]

## C[C@@H]1CC[C@H]2[C@@H](C)C(=O)O[C@@H]3O[C@@]4(C)CC[C@@H]1[C@]32OO4
[1]
  AC50: 1.58 µM [falling, partial curve, poor fit]

## CCOc1ccc2nc(N=Nc3c(O)[nH]c(=S)[nH]c3=O)sc2c1
[1]
  AC50: 3.55 µM [rising, full curve, poor fit]

## O=C(NC(NC(=S)Nc1cccc(Cl)c1)C(Cl)(Cl)Cl)OCc1ccccc1 (centres undefined)
[1]
  AC50: 22.4 µM [falling, single point]

## COc1ccc(C2C([N+](=O)[O-])=C(N)Oc3c2c(=O)oc2ccccc32)cc1 (centres undefined)
[1]
  AC50: 0.184 µM [falling, full curve]

## O=C(Cn1c(=O)oc2cc(S(=O)(=O)N3CCCCC3)ccc21)N1CCc2ccccc2C1
[1]
  AC50: 6.51 µM [rising, single point]

## OCCN1CCN(c2nc(-c3ccccc3O)nc3ccccc23)CC1
[1]
  AC50: 14.1 µM [falling, single point]

## CN1CCN(c2ccc([N+](=O)[O-])c(N3CCCCC3)c2)CC1
[1]
  AC50: 22.4 µM [rising, single point]

## O=C1CSC(c2ccccc2[N+](=O)[O-])N1c1ccc(O)cc1 (centres undefined)
[1]
  AC50: 22.4 µM [falling, single point]

## Cc1ccc(C(O)(c2ccc(C)c(C)c2)C2CN3CCC2CC3)cc1C (centres undefined)
[1]
  AC50: 14.1 µM [falling, single point]

## COC(=O)C(Cc1ccc(N(CCCl)CCCl)cc1)N=Cc1ccccc1O (centres undefined)
[1]
  AC50: 35.5 µM [falling, single point]

## COC(=O)C1=C(c2cccc(OCc3ccccc3)c2)C[C@@H]2CC[C@H]1N2C(=O)NCc1ccccc1OC
[1]
  AC50: 20.6 µM [falling, single point]

## COC(=O)C1=C(c2ccc(F)cc2OCc2ccccc2)C[C@@H]2CC[C@H]1N2C(=O)NCc1ccc(F)cc1
[1]
  AC50: 16.4 µM [falling, partial curve]

## COC12CCC3(CC1C(C)(O)C(C)(C)C)[C@H]1Cc4ccc(OC5OC(C(=O)O)[C@@H](O)C(O)[C@H]5O)c5c4[C@@]3(CCN1CC1CC1)C2O5 (some centres undefined)
[1]
  AC50: 16.4 µM [rising, partial curve, poor fit]

## CC(C)C1(C)N=C(c2ncccc2C(=O)O)NC1=O (centres undefined)
[1]
  AC50: 0.146 µM [rising, full curve, poor fit]

## NCC(CC(=O)O)C1CCCCC1 (centres undefined)
[1]
  AC50: 23.1 µM [rising, partial curve, poor fit]

## CCC(C)Nc1cc(C)c(C#N)c2nc3ccccc3n12 (centres undefined)
[1]
  AC50: 11.2 µM [falling, single point]

## COc1ccc(CCn2c(O)c(C=NCCCN(C)C)c(=O)[nH]c2=O)cc1OC
[1]
  AC50: 29.1 µM [rising, single point]

## CCCCn1c(NC(=O)c2ccc(Br)o2)c(C(=O)OCC)c2nc3ccccc3nc21
[1]
  AC50: 6.51 µM [falling, partial curve, poor fit]

## CC(C)(C)c1nc(NCc2ccc3c(c2)OCO3)c2nnn(Cc3ccccc3Cl)c2n1
[1]
  AC50: 2.59 µM [rising, full curve, poor fit]
